Laboratory results as given in PMC9308268.
These are yes or no findings as the source states them, for the method shown. For some assays here: Binding seen in cells or lysates may run through a third protein. Some binding calls cover weakened binding; strength is not graded here. Tags and fused reporters may be left off the sequences shown.

Amino acid sequences for entries named in this document (tags omitted).
UniProt P60953: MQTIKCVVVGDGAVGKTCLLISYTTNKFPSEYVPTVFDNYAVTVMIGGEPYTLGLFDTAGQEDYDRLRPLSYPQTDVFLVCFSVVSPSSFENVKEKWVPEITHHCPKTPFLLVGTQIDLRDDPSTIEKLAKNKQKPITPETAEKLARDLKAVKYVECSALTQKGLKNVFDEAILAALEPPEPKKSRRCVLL

Assays:
[1] = molecular target: T1, Rho guanine nucleotide exchange factor 37 (ARHGEF37), wild type, Flag-tagged (human) (UniProt A1IGU5); test: co-IP; anti-Flag antibody cross-linked to protein G-agarose beads, overnight at 4 °C; lysis buffer 25 mmol/L HEPES pH 7.4, 150 mmol/L NaCl, 1% NP-40, 1 mmol/L EDTA, 2% glycerol; wild-type and serially truncated ARHGEF37 in the indicated cells
T1 sequence: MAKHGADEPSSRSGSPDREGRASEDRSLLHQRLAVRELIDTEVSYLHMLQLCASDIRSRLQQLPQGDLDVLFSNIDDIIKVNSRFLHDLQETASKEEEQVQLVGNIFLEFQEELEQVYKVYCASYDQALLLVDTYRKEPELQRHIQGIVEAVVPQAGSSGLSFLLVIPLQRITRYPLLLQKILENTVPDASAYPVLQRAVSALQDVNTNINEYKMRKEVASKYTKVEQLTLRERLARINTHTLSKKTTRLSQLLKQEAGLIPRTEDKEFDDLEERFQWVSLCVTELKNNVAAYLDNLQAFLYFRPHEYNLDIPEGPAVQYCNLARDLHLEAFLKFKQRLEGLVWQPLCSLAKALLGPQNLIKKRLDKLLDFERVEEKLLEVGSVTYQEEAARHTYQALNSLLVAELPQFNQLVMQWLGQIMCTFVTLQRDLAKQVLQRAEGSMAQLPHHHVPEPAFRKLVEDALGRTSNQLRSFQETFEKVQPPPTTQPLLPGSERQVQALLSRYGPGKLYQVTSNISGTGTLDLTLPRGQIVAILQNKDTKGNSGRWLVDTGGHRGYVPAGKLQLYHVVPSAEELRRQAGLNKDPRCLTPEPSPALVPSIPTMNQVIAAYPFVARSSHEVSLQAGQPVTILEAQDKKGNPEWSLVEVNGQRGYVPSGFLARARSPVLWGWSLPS

[2] = molecular target: T1, Rho guanine nucleotide exchange factor 37 (ARHGEF37), wild type, Flag-tagged (human); test: far-Western; immunoprecipitated proteins separated by SDS-PAGE and transferred to a PVDF membrane; recombinant Cdc42 added at 3 ug/mL, 4 °C, 18 hours; detected with anti-Cdc42 antibody, reblotted with anti-ARHGEF37 antibody; both purified

| binding [1] | binding [2] | Substance |
| --- | --- | --- |
| binds |  | Cdc42 in cell lysate (co-immunoprecipitation) (from UniProt P60953 1-191) |
|  | binds | Human recombinant Cdc42 protein (from UniProt P60953 1-191) |
